According to PubChem BioAssay AID1487 (National Center for Advancing Translational Sciences (NCATS), 2009):
The campaign covered roughly 200,000 compounds. About 25 (0.01%) were called active. The inconclusive results got no clear call from the source; some entries with a clear call stand among them for comparison. Calls come from the whole dose curve; as a rule, active = well fitted inhibition curve with a large enough effect in the signal ratio, with a control signal flat (not every such curve was filed as active); inconclusive = small, poorly fitted or top-dose-only effect, or effect the other way, or a change in a side signal; inactive = flat fitted curve, though single readings scatter; the % refers to the signal ratio. A potency beside an inconclusive call is a rough fit, not a confirmed value. “Side channel” marks fits to a control or component signal instead of the main read-out.

Test: qHTS Assay for Modulators of Lamin A Splicing
Conditions: HeLa LMNA splicing GFP/RFP minigene ratio, 48 h; ratio change, negative = inhibition: at 46.1 µM (top of the series) unless noted
Outline: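 Read-out is the ratio of GFP to DsRed2 object intensity, acquired by 488 nm laser-scanning cytometry on HeLa lamin A-EGFP minigene reporter cells. Compound incubation 48 hrs at 37 °C in Opti-MEM with 2% FBS; DMSO 0.5% final.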
% is set by controls: 0 for no effect and ±100 for the full control effect; potency is the fitted concentration of half-maximal effect.

Compound	ratio change, negative = inhibition	Potency
CCOC(=O)c1nnn(-c2nc(N(C)C)nc(N(C)C)n2)c1C	inconclusive: 5.32% [at 9.22 µM]	
CC(C)(C)C(C(Oc1ccc(Cl)cc1)n1cncn1)n1nnnc1C(c1cccc(Cl)c1)N1CCCCC1 (stereo not drawn)	inconclusive: -31.5%	
COC(=O)c1ccc(NC(=O)CSc2nnc(-c3ccncc3)n2C)cc1	inconclusive: 9.46%	
Cc1nc(Cl)c(C(=O)NC(=O)Nc2cccc(C(F)(F)F)c2)c(C)c1[N+](=O)[O-]	inconclusive: -37.7%	
C=CCNC(=O)CN(c1cc(Cl)ccc1OC)S(=O)(=O)c1ccc(C)c([N+](=O)[O-])c1	inconclusive: 11.3% [at 46 µM]	
CCc1ccc(-c2cc(C(F)(F)F)n3nc(C(=O)Nc4cnn(Cc5ccc(C)cc5)c4)cc3n2)s1		inconclusive: 11.2 µM [cytotoxic, partial curve]
CCn1nnc(NC(=O)c2cccnc2)n1	inactive: -0.181%	
Cc1ccc(C2=NN=C(NC(=O)C(F)(F)F)SC2)cc1	inconclusive: -3.93% [at 46 µM]	
COCC(C)Nc1ncnc2c1cnn2-c1cccc(Cl)c1 (stereo not drawn)	inconclusive: -30.1% [at 46 µM]	
Cc1ccc(C(c2nnnn2C2CCCC2)N2c3ccccc3CC2C)cc1 (stereo not drawn)		inconclusive: 14.1 µM [falling, single point]
Cc1cc(-c2c(C)[nH]n(-c3ccc(Cl)cc3)c2=O)n(-c2ccc(Cl)cc2)n1	inconclusive: 56.2%	
COc1cc(-c2noc(CCCC(=O)NCc3ccco3)n2)cc(OC)c1OC	inactive: -5.17%	
CCn1c(=O)n(CC2CCC(C(=O)NC(C)C)CC2)c(=O)c2sccc21 (stereo not drawn)	inconclusive: -9.31% [at 46 µM]	
COc1ccccc1-n1cnc2cc(NC(=O)c3ccco3)ccc21	inconclusive: -34.8%	
CCN1CCN(c2ncnc3c2cnn3-c2ccc(F)cc2)CC1	inactive: -22.5% [at 46 µM]	
CCc1ccc(N2C(=O)c3cc(N4CCOCC4)c([N+](=O)[O-])cc3C2=O)cc1	inactive: 2.19%	
COC(=O)c1sc2ccccc2c1S(=O)(=O)N1CCN(c2ccc(C(C)=O)cc2)CC1	inconclusive: -2.72% [at 46 µM]	
COc1ccc(Cl)cc1C(=O)Nn1c(-c2cccs2)nc2ccccc2c1=O		inconclusive: 7.08 µM [falling, partial curve]
O=C(NCC(c1cccs1)N1CCOCC1)c1ccc(Cl)s1 (stereo not drawn)		inconclusive: 6.31 µM [inhibitor, full curve, poor fit]
CC(=O)c1cc(-c2ccc(F)cc2)n(CCC(=O)NC2CCCCC2)c1C	inconclusive: 1.03% [at 46 µM]	
Cc1c(N)cccc1-c1nc2ccccc2[nH]1	inactive: -12.4%	
CC(C)(C)c1cc(NCCCn2ccnc2)n2ncc(-c3ccc(Cl)cc3)c2n1		inconclusive: 28.2 µM [cytotoxic, single point]
COc1cc2c(cc1OC)CN(Cc1ccc(C)s1)CC2	inconclusive: -1.29%	
COc1ccc(CSc2nncn2C)cc1[N+](=O)[O-]	inactive: -5.68%	
COC(=O)CN1C(c2ccc(Cl)cc2)=Nc2ccc(Cl)cc2C1c1ccccc1 (stereo not drawn)	inconclusive: -42.5%	
Cc1nc2oc(C(=O)c3ccccc3)c(N)c2c2c1COC(C)(C)C2	inactive: -6.38%	

Compound	ratio change, negative = inhibition	Potency
COc1ccc(C2=C(C(C)=O)Sc3nnc(-c4ccccc4)n3N2C(C)=O)cc1		inconclusive: 14.1 µM [inhibitor, single point]
CNC(=O)COC(=O)/C=C/c1ccco1	inconclusive: -0.336% [at 46 µM]	
Cc1[nH]n(C(N)=S)c(=O)c1C(c1ccccc1)C(C#N)C#N (stereo not drawn)	inactive: 19%	
CN(C)c1ccc(S(=O)(=O)NCC(=O)OCC(=O)Nc2cc(Cl)cc(Cl)c2)cc1[N+](=O)[O-]	inactive: -8.44%	
COCCCn1c(=O)/c(=C\c2ccccc2OC(F)F)s/c1=C(/C#N)C(N)=O	inconclusive: 8.96% [at 46 µM]	
CCCn1c2ccccc2c2cnn(CC(=O)NC(C)CC)c(=O)c21 (stereo not drawn)	inconclusive: -7.44% [at 46 µM]	
COc1ccc(C2CC(=O)c3c([nH]c(C(=O)OC(C)C)c3C)C2)cc1OC (stereo not drawn)	inconclusive: 14.9%	
C[N+](C)(C)c1ccc(/C=N/Nc2nc(Cl)c(C#N)c(Cl)c2Cl)cc1	inactive: -13.5%	
COc1ccc(N2CCN(C(=O)c3c4c(nc5ccccc35)C(=O)N(C3CCCCC3)C4)CC2)cc1	inconclusive: -12.1% [at 46 µM]	
Cc1cc(C)c(S(=O)(=O)N(CC(=O)NCc2cccnc2)C2CCCCC2)c(C)c1	inactive: -0.722%	
CC(C)c1ccc(/C=C/C(=O)NC2CCCCC2)cc1	inconclusive: 10.3%	
COC(=O)c1c(-c2cccs2)csc1NC(=O)c1ccc(C(C)(C)C)cc1	inactive: -20.9% [at 46 µM]	
CSc1ccc(C2c3[nH]c4ccccc4c3CCN2C(=O)CCC2CCCC2)cc1 (stereo not drawn)		inconclusive: 5.62 µM [inhibitor, full curve]
COc1cc(-c2cc(=O)c3ccccc3o2)ccc1O	inconclusive: 3.82% [at 46 µM]	
COCCCNC(=S)N(Cc1ccccc1)Cc1ccccc1	inconclusive: 11.1%	
COc1ccc(-c2nnc(SCC(=O)c3ccc(NC(C)=O)cc3)o2)cc1OC	inactive: -1.29% [at 46 µM]	
Cc1cccc(Cc2c(C)nc3nc(SCc4cccc(F)c4)nn3c2C)c1	inconclusive: -0.796% [at 46 µM]	
COc1ccc(N2CCN(CC(O)c3c[nH]c4ccc(OC)cc34)CC2C)cc1 (stereo not drawn)		inconclusive: 0.501 µM [inhibitor, single point]
CC(NC(=O)COc1ncnc2cc([N+](=O)[O-])ccc12)c1ccccc1 (stereo not drawn)	inconclusive: 9.93%	
Cc1cccc(N(C(=O)c2cnc3n(c2=O)CCS3)C2CCCCC2)c1	inactive: -5.53%	
NC(=O)C1CCN(Cc2nc(-c3cccs3)no2)CC1	inconclusive: 9.93% [at 46 µM]	
CCn1c(C)cc(/C=C2/NC(=O)N(CC(=O)Nc3cccc(C)c3)C2=O)c1C	inactive: -17.9%	
CC(=O)c1sc(NC(=O)COc2ccc(C(C)C)c(C)c2)nc1C	inconclusive: -3.03% [at 46 µM]	
COc1cc(C=O)ccc1OCCCCOc1ccccc1[N+](=O)[O-]	inconclusive: 5.06%	
O=C(NCc1ccco1)c1nc2nc(-c3cccs3)cc(C(F)(F)F)n2n1	inactive: -7.08%	
O=C(Cn1c(COc2ccccc2)nc2ccccc21)Nc1cc(Cl)ccc1Cl	inactive: -1.17%	

Compound	ratio change, negative = inhibition	Potency
O=C1c2ccccc2NC2(CCCC2)N1NS(=O)(=O)c1ccccc1	inconclusive: -4.21% [at 46 µM]	
O=C(NCC1CCCO1)c1cc(-c2ccccc2)on1 (stereo not drawn)		inconclusive: 35.5 µM [rising, single point]
O=C(Nc1ccccc1Cl)c1cc[n+](Cc2ccc([N+](=O)[O-])cc2)cc1	inconclusive: 15.1% [at 46 µM]	
Cc1ccc(CSCCC(=O)N2CCN(c3cc(C)ccc3C)CC2)cc1	inconclusive: -30.1% [at 46 µM]	
Cc1c(Cl)ccc2sc(NC(=O)CN3C(=O)c4ccccc4C3=O)nc12	inconclusive: 3.37%	
NC(=O)c1cc(C(=O)c2ccc(Cl)cc2Cl)c[nH]1	inconclusive: 45.7% [at 46 µM]	
CCc1ccc(NC(=O)CSc2nc3c(sc4ccccc43)c(=O)n2CCN(CC)CC)cc1	inconclusive: 39.1% [at 46 µM]	
COc1cc(-c2nnc(-c3cccs3)o2)cc(OC)c1OC	inconclusive: -16.3%	
Cc1ccc(-c2nc3cc(N)ccc3o2)c(C)c1	inactive: 3.21%	
COc1ccccc1Nc1ncccc1C(=O)NCc1ccccc1	inconclusive: -1.18%	
CC(=O)c1ccc(N2CCN(C(=O)c3ccc4c(=O)n(-c5ccccc5)c(=O)[nH]c4c3)CC2)cc1		inconclusive: 22.4 µM [fluorescent, single point]
Cc1ccc(C(=O)Nc2ccccc2C(=O)OCc2cc(=O)n3nc(C4CC4)sc3n2)cc1	inactive: 13.6% [at 46 µM]	
CCCCCn1c(=O)c(Cc2ccccc2)c(O)c2ccccc21		inconclusive: 25.1 µM [fluorescent, single point]
Cc1ccc(Nc2ccc(S(=O)(=O)N3CCOCC3)cc2[N+](=O)[O-])cc1C	inconclusive: -32%	
Cc1ccc(S(=O)(=O)Nc2n[nH]nc2C(=O)NC2CCCCC2)cc1		inconclusive: 251 µM [side channel, falling, partial curve, poor fit]
CCC(CC)C(=O)Nc1cccc(/C(C)=N/NC(=O)c2c(Br)cnn2C)c1	inactive: 7.99%	
Nc1ccc(N2CCN(C(=O)c3ccco3)CC2)cc1		inconclusive: 8.91 µM [inhibitor, partial curve]
CCc1ccc(-n2nc(C)c3c(C)cc(=O)n(CC(=O)N(CC)Cc4ccccc4)c32)cc1	inconclusive: -38% [at 46 µM]	
CCOC(=O)C1=C(C)NC(C)=C(C(=O)OCC)C1C(=O)OCC(=O)N1CCc2ccccc21	inconclusive: 17.2%	
Cc1nn(CCOc2ccccc2)c(=O)n1-c1ccc(Cl)cc1	inconclusive: 7.88% [at 46 µM]	
Oc1c(C(c2ccc(Cl)cc2Cl)N2CCCC2)sc2nc(-c3ccco3)nn12 (stereo not drawn)	inconclusive: -14.2% [at 46 µM]	
Cc1ccccc1-c1cc(C(=O)n2cccn2)c2cc(Cl)ccc2n1	inconclusive: -6.91%	
CCC(C(=O)Nc1ccccc1OC)n1c(C(=O)OC)cc2ccsc21 (stereo not drawn)	inconclusive: 5.33%	
O=C(CCC(=O)c1ccccc1)NCCOc1ccccc1	inactive: 14.8% [at 46 µM]	
COc1ccc(C2C(C#N)=C(N)Oc3c2c(-c2ccccc2)nn3-c2ccccc2)c(OC)c1OC (stereo not drawn)		inconclusive: 35.5 µM [falling, single point]
CCc1cc2c(NCCO)ncnc2s1	inconclusive: 29.5%	

Taken from above.
For ratio change, negative = inhibition, CCOC(=O)C1=C(C)NC(C)=C(C(=O)OCC)C1C(=O)OCC(=O)N1CCc2ccccc21 is entered as inconclusive: 17.2%
For ratio change, negative = inhibition, CCc1cc2c(NCCO)ncnc2s1 is entered as inconclusive: 29.5%
For Potency, Cc1ccc(S(=O)(=O)Nc2n[nH]nc2C(=O)NC2CCCCC2)cc1 is entered as inconclusive: 251 µM [side channel, falling, partial curve, poor fit]
For ratio change, negative = inhibition, COc1ccccc1Nc1ncccc1C(=O)NCc1ccccc1 is entered as inconclusive: -1.18%
